# Test results taken from the supplement of paper PMC10503962.
# This is one part of the list. Most values come without repeats; read them as rough.
# Tested on: Trichuris muris adult worms
# Test: median motility score (Paragon pixel variance) of adult worms (arbitrary units); higher = more motile worms
# Conditions: 24 h
smiles,measurement,setting,value
COc1ccc(Cc2nccc3cc(OC)c(OC)cc23)cc1OC [papaverine],median motility score,20 µM,1520
same,median motility score,50 µM,3370
same,median motility score,100 µM,3770
